From paper PMC9257163, “Fluorescence Detection of Cancer Stem Cell Markers Using a Sensitive Nano-Aptamer Sensor”
Construct, isoform or probe ends are uncertain for at least one entry. For part of these data: A negative result means that nothing was seen under these conditions. For part of these data: Results from cells or extracts need not show a direct contact. For part of these data: At least one verdict rests on a figure or table, not on a statement of the authors.

The chains behind the UniProt entries cited, without tags or fusion partners. Residues count along the entry.
UniProt O43490, 21-865: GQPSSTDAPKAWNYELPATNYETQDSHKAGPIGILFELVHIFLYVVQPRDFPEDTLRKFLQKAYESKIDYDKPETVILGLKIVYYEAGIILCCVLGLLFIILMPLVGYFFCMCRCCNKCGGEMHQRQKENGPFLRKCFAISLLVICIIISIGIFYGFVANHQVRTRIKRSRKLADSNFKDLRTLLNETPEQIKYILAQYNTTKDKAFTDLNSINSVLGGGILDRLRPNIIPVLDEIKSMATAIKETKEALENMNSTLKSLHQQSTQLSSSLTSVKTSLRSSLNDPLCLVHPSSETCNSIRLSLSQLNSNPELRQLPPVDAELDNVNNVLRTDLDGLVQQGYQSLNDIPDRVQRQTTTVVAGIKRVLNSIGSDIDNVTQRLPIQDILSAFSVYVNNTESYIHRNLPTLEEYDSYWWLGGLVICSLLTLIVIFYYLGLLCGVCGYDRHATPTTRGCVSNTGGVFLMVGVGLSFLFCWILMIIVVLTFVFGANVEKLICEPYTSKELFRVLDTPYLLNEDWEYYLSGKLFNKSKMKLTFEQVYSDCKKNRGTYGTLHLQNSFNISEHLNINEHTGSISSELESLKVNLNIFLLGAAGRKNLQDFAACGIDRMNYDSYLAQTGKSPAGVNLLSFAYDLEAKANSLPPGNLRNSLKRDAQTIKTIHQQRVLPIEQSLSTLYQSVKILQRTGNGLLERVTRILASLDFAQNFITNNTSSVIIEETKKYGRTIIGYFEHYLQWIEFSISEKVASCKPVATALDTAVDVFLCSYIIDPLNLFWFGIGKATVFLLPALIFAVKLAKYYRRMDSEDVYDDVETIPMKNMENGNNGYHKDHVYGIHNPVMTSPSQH

Legend:
CD133 on A549 cells = CD133 on A549 cells (UniProt O43490); experiment: confocal fluorescence imaging of cells; conditions: 8 h, sensor annealed from 95 °C to room temperature, binding buffer, protein on the cell surface
PIN 5 = experiment: competition (FRET turn-on displacement of AuNPs-ssRNA); conditions: 2 uM protein; 5'-NH2 on aptamer; 5'-SH on ssRNA; QD-aptamers redispersed in PBS; sensor annealed from 95 °C to room temperature; binding buffer
CD44 = experiment: as above; conditions: 2 uM protein; 5'-NH2 on aptamer; 5'-SH on ssRNA; QD-aptamers redispersed in PBS; sensor annealed from 95 °C to room temperature; binding buffer
SCC = experiment: as above; conditions: 2 uM protein, recovery around 5% vs 68% for CD133; 5'-NH2 on aptamer; 5'-SH on ssRNA; QD-aptamers redispersed in PBS; sensor annealed from 95 °C to room temperature; binding buffer
actin = experiment: as above; conditions: 2 uM protein; 5'-NH2 on aptamer; 5'-SH on ssRNA; QD-aptamers redispersed in PBS; sensor annealed from 95 °C to room temperature; binding buffer

CCCUCCUACAUAGGG [QD-CD133 aptamer]
binding result (CD133 on A549 cells; QDs without aptamer gave weak signal, 5'-NH2, QD-aptamers redispersed in PBS, label: CdSe/ZnS QD at 5' end): binds

CCCUCCUACAUAGGG / CCCUAUG [CD133 aptamer sensor (QD-aptamer hybridized to AuNPs-ssRNA)]
binding result (CD133 on A549 cells; blocked by free aptamer pretreatment, no signal on CD133-negative HuH-7, 5'-NH2 on aptamer, 5'-SH on ssRNA, QD-aptamers redispersed in PBS): binds | binding result (PIN 5): no binding | binding result (CD44): no binding | binding result (SCC): no binding | binding result (actin): no binding
